The values that follow come from PMC10893521, “Influence of Desialylation on the Drug Binding Affinity of Human Alpha-1-Acid Glycoprotein Assessed by Microscale Thermophoresis” (Pharmaceutics, 2024).

The target in assay [1] is T1, Native human AAG (alpha-1-acid glycoprotein, orosomucoid).
T1 construct: gene ORM1; native human plasma protein, 183 residues, two cystine bridges, five N-glycans, fully sialylated (IS 270)
The assay can be described thus: microscale thermophoresis, RED-NHS labelled protein, […] fit. In kind it is binding. The conditions noted are these: 25 mM sodium phosphate pH 7.4, 0.05% Tween 20, 5% DMSO, room temperature, 20 nM AAG.

In assay [2] the target is T2, Desialylated human AAG.
T2 construct: gene ORM1
The description is as above. In kind it is binding. The conditions noted are these: 25 mM sodium phosphate pH 7.4, 0.05% Tween 20, 5% DMSO, room temperature, 20 nM AAG.

With `CCN(CC)CC(=O)Nc1c(C)cccc1C` [lidocaine], the equilibrium dissociation constant (Kd) in assay [1] was found to be 487 µM; in assay [2], 898 µM.
